This is an account of results in article PMC6735508.

The chains behind the UniProt entries cited, without tags or fusion partners.
UniProt Q99816: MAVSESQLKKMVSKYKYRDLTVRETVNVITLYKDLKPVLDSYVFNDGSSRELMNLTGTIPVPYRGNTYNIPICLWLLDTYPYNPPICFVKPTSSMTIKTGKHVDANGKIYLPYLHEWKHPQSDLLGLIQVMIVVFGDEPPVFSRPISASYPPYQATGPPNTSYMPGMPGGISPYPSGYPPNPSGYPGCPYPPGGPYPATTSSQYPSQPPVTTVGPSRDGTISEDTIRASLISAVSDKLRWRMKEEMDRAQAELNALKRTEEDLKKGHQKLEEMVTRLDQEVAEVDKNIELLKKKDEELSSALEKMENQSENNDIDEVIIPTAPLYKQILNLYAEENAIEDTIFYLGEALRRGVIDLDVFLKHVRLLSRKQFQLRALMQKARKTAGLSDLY
UniProt P46379: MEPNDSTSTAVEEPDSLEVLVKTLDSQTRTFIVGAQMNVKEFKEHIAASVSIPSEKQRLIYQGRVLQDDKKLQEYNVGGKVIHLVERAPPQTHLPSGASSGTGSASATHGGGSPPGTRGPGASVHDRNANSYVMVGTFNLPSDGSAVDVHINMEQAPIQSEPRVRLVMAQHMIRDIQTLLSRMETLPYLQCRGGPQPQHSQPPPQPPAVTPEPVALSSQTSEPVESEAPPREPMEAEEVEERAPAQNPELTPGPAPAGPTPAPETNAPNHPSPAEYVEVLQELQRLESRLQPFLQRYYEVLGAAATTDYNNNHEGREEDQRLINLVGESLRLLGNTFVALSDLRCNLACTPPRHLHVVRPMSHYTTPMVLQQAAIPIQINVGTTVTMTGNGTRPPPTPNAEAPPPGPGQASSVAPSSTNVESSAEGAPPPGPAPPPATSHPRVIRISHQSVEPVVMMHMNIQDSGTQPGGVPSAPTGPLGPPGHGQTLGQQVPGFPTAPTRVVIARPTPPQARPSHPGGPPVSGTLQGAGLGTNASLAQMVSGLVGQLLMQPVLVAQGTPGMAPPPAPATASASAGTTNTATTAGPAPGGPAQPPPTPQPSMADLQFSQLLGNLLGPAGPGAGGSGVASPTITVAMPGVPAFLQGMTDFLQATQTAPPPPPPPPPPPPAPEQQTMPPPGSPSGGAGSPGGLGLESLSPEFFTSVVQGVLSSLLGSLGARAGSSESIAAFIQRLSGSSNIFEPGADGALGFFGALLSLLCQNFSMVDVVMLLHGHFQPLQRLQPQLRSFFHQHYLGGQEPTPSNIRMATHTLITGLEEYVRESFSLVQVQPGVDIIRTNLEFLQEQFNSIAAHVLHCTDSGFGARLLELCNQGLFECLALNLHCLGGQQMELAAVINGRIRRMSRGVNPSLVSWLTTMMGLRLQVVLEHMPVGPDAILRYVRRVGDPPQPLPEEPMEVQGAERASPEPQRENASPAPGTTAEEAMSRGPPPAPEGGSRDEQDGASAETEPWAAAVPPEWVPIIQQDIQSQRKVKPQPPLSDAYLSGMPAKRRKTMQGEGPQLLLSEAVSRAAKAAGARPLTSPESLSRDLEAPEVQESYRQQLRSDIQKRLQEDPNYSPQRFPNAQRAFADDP
UniProt Q8WUM4: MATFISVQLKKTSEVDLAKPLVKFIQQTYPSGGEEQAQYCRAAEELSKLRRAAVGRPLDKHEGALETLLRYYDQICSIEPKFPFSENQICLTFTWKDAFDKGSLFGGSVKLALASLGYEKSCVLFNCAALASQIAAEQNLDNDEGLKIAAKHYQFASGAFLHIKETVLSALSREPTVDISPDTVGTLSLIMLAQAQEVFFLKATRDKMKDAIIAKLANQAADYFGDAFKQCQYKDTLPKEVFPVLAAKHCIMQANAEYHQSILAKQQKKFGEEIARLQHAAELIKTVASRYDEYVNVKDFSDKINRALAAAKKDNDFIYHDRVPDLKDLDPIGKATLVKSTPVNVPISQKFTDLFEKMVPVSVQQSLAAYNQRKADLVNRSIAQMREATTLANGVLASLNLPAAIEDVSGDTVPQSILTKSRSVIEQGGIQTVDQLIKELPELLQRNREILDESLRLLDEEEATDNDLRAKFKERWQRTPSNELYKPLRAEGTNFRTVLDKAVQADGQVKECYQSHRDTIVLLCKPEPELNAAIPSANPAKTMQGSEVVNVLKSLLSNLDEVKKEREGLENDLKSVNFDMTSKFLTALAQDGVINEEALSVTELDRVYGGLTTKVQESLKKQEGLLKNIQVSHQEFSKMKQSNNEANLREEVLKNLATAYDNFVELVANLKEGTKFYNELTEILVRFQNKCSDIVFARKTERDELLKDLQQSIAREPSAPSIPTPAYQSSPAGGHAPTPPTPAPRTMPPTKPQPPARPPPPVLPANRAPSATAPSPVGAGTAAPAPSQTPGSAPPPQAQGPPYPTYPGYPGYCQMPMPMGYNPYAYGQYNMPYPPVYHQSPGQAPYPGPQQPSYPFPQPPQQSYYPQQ
UniProt O14964: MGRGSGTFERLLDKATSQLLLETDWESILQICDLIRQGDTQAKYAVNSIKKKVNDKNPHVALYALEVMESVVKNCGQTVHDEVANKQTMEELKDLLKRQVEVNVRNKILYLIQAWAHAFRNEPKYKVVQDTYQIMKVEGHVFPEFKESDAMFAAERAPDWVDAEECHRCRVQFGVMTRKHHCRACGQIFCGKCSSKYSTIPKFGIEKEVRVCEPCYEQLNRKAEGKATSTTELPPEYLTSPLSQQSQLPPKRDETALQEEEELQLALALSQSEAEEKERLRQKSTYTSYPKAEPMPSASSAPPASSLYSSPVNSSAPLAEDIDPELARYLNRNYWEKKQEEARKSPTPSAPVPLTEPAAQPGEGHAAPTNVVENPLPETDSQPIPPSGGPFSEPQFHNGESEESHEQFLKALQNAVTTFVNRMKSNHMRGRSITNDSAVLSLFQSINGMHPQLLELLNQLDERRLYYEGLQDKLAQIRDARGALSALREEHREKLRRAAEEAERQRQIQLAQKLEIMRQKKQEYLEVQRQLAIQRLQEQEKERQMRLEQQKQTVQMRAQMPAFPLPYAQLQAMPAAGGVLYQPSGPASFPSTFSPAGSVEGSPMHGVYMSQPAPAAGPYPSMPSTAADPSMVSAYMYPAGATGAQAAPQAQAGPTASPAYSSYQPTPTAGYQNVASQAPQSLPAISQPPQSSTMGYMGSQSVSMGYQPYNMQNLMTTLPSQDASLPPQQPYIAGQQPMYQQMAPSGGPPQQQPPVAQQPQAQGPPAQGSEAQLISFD

These are yes or no findings as the source states them, for the method shown. For some of these results: In cells and extracts the contact can be indirect. Some results given as binding are weak or reduced against the parent protein; the word gives no strength.

For assay [1], the target named is TSG101, yeast two-hybrid fusion (UniProt Q99816). Put plainly: two-hybrid; pGADT7 and pGBT9 vectors in yeast lines Y2H Gold and Y187, mated; growth on DDO and QDO media.
The target of assay [2] is p53, endogenous in HEK293 cells (human (endogenous in HEK293)) (UniProt P04637). The assay is described as follows: co-IP; endogenous proteins in HEK293 cell lysates, cells untreated or treated with 1 µM doxorubicin (1 h or the indicated time); precipitated with anti-BAG6, anti-p53 or anti-CBP/p300 antibodies and Protein A magnetic beads; immunoblot. A general note: In western blotting, separated proteins are transferred to a membrane and probed.

Assay [3] deals with Bcl2-associated anthogene 6 (BAG6), endogenous in HEK293 cells (human (endogenous in HEK293)) (UniProt P46379). The assay is described as above.
Assay [4] concerns the target BAG6, in vitro translated (UniProt P46379). Put plainly: co-IP; in vitro translated BAG6 and p53 mixed and incubated for 1 h at 25°, then precipitated with anti-BAG6 or anti-p53 antibodies; immunoblot.

Regarding “BAG6, yeast two-hybrid fusion (from UniProt P46379 1-1132)”, in assay [1], the binding entry was “binds”.
In the case of “Bcl2-associated anthogene 6 (BAG6), endogenous in HEK293 cells (from UniProt P46379 1-1132)”, the binding entry in assay [2] is given as “binds”.
Take “p53, endogenous in HEK293 cells (from UniProt P04637 1-393)”: the binding entry in assay [3] is “binds”.
Still for that read-out and setting: the entry for “ALIX, endogenous ESCRT protein in HEK293 cells (from UniProt Q8WUM4 1-868)” is “binds”; for “TSG101, endogenous ESCRT protein in HEK293 cells (from UniProt Q99816 1-390)” it is “binds”.
Regarding “p53, in vitro translated (from UniProt P04637 1-393)”, the binding entry in assay [4] is listed as “binds”.
Turning to “HRS, endogenous ESCRT protein in HEK293 cells (from UniProt O14964 1-777)”, the binding entry in assay [3] was “binds”.
